# Experimental data as given in patent publication US5091518.
# Sequences of proteins named here, by UniProt entry; tags and fusion partners are left off.
# UniProt P03372, whole entry: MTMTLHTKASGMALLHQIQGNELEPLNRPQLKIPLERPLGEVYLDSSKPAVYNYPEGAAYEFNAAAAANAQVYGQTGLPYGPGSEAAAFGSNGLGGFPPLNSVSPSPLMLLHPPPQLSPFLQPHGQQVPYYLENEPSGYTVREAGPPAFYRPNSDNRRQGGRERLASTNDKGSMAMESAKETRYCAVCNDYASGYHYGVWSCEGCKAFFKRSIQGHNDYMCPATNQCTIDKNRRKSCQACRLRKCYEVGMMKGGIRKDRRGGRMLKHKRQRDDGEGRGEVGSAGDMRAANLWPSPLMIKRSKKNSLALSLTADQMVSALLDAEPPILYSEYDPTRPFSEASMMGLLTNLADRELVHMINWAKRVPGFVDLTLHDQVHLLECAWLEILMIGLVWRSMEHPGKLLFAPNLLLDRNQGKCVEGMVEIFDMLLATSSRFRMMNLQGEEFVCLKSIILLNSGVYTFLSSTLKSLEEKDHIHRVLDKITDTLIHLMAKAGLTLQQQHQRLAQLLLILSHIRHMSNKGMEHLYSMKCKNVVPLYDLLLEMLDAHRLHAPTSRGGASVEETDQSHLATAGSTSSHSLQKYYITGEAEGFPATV
# For some of these results: Negatives hold for the conditions tested. For some of these results: Protein sequences can lack the tags named with them. For some of these results: Weaker means in comparison with the reference protein, sequence or condition of that experiment. For some of these results: Where cells or extracts were used, other partners may take part. For some of these results: For at least one entry, the source does not settle the construct or the ends of the probe.
# Legend:
# [1] = tested on: Thyroid hormone receptor (TR); assay: activity in cells; details: about 10- to 20-fold less activation; protein in cells; only the site is given
# [2] = molecular target: T1, Glucocorticoid receptor (GR) (UniProt P04150); assay: activity in cells; details: CV-1, with or without ligand; protein in cells; only the site is given
# T1 sequence (looked up, limits assumed): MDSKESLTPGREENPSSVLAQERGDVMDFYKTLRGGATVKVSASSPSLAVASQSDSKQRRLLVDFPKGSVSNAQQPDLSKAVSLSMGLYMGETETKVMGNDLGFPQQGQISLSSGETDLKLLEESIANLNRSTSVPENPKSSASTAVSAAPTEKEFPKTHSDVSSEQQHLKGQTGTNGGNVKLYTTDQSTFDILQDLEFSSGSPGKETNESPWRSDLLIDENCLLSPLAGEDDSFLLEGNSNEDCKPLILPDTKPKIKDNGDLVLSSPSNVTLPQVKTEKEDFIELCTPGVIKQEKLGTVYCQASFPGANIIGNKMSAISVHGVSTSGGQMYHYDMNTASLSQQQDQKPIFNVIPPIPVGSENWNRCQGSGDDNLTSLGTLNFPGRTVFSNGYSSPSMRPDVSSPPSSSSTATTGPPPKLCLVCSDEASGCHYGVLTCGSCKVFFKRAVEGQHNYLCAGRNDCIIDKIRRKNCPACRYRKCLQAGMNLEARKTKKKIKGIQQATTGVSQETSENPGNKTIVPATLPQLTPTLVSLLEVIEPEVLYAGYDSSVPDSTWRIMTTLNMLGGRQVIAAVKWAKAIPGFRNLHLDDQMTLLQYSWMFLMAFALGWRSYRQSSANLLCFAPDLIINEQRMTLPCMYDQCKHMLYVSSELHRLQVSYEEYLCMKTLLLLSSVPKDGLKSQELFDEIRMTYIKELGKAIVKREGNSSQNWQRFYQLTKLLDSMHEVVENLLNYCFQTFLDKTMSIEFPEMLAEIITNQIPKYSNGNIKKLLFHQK
# [3] = molecular target: T2, Vitamin D receptor (VD3R) (UniProt P11473); assay: activity in cells; details: about 10- to 20-fold less activation; protein in cells; only the site is given
# T2 sequence (looked up, limits assumed): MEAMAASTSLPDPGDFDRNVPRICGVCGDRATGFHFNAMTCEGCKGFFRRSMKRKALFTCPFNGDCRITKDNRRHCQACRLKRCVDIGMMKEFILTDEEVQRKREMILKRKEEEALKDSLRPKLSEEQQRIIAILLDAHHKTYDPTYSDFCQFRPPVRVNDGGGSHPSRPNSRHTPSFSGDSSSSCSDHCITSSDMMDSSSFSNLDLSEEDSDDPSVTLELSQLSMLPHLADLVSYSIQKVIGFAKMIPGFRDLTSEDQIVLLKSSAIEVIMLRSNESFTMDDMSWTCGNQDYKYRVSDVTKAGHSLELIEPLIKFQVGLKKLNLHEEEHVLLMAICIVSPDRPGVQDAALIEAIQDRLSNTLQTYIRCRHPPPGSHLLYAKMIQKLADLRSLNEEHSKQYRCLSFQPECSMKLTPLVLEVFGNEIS
# Estrogen receptor (ER) = Estrogen receptor (ER) (UniProt P03372); assay: activity in cells; details: CV-1, with or without ligand; protein in cells; only the site is given
# [4] = molecular target: T3, Retinoic acid receptor gamma (RAR-gamma) (UniProt P13631); assay: activity in cells; details: functional only upon cotransfected RAR; all three subtypes; protein in cells; variant of betaRE1 (RAR-beta RARE); only the site is given
# T3 sequence (looked up, limits assumed): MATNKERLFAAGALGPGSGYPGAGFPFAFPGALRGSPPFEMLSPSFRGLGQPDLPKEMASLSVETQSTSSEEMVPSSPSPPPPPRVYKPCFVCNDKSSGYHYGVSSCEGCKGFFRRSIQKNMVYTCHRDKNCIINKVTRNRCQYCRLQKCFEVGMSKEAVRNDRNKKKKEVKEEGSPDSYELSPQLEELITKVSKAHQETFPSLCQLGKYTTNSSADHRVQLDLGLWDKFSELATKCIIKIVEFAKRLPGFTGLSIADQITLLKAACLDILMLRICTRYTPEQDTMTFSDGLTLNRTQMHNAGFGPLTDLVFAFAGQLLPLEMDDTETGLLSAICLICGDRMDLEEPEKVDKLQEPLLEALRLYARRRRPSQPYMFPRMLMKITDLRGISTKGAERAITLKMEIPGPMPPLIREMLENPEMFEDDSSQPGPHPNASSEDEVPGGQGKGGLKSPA
# [5] = molecular target: T4, Retinoic acid receptor alpha (RAR-alpha) (UniProt P10276); assay: activity in cells; details: functional only upon cotransfected RAR; protein in cells; protein details: RSV expression vector, CV-1 cells; variant of betaRE1 (RAR-beta RARE); only the site is given
# T4 sequence (looked up, limits assumed): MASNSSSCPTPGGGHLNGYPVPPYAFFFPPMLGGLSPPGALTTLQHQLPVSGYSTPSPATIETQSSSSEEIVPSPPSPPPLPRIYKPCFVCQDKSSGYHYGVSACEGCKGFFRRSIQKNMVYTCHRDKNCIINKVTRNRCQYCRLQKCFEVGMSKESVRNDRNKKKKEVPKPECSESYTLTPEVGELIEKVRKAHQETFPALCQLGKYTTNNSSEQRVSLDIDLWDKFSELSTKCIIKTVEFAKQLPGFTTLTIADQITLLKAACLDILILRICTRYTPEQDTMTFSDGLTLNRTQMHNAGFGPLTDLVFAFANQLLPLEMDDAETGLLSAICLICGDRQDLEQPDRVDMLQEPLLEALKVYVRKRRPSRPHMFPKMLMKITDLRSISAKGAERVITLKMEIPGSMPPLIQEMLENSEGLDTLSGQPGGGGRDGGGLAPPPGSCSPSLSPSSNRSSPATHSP
# [6] = molecular target: T1, Glucocorticoid receptor (GR); assay: pull-down; details: GR extract does not recognize betaRE2; protein in a lysate after overexpression; label: 32P
sequence,measurement,setting,value
AAGCTTAAGGGTTCACCGAAAGTTCACTCGCATATATTAGCTT (double strand) [betaRE1 (RAR-beta RARE)],activity on this sequence,[1],less active
same,activity on this sequence,[2],not active
same,activity on this sequence,[3],less active
same,activity on this sequence,Estrogen receptor (ER),not active
GTTCAC (double strand) [betaRE4 / betaRE5 single half site],activity on this sequence,[4],less active
same,activity on this sequence,[5],less active
AAGCTTAAGGGTTCACCGAAAGTTCACTCGCATAGCTT (double strand) [betaRE2 oligo (RAR-beta RARE)],binding result,[6],no binding
